Experimental data: paper PMC10213043, “Different viral effectors suppress hormone-mediated antiviral immunity of rice coordinated by OsNPR1” (Nature Communications, 2023)
Results are given in words; binding and its absence hold for the method and conditions named. Binding seen in cells or lysates may run through a third protein. Some results given as binding are weak or reduced against the parent protein; the word gives no strength. Sequences can lack the tags named with a protein.

Chains of the proteins cited; added tags and fusions are not shown.
UniProt Q336P5: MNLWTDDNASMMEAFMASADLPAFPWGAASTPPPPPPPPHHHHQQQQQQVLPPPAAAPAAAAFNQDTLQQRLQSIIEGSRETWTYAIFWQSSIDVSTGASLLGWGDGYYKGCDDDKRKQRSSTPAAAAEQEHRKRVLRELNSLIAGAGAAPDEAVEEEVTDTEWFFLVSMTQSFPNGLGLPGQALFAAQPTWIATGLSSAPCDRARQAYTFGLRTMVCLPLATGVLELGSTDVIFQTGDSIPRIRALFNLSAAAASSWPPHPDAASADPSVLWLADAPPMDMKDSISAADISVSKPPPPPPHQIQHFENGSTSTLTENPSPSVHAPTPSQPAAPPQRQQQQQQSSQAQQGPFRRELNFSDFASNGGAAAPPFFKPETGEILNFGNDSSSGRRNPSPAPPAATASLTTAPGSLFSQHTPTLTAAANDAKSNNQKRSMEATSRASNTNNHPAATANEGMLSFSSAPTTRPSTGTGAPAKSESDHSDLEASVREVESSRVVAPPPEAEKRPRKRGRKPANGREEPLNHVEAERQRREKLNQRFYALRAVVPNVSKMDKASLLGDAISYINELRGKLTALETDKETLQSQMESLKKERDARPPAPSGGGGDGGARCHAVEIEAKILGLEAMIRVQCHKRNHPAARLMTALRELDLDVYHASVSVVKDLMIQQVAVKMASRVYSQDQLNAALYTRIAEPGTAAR

Tests used:
OsNPR1-GFP (rice) [1] = molecular target: T1, OsNPR1-GFP (rice) (UniProt Q9FDY4); test: co-IP; transient co-expression in N. benthamiana leaves (WT or NahG transgenic), no SA added; IP lysis buffer with 10 mM DTT; anti-FLAG, GFP-trap or anti-c-Myc beads, about 2 h at 4 °C
T1 sequence: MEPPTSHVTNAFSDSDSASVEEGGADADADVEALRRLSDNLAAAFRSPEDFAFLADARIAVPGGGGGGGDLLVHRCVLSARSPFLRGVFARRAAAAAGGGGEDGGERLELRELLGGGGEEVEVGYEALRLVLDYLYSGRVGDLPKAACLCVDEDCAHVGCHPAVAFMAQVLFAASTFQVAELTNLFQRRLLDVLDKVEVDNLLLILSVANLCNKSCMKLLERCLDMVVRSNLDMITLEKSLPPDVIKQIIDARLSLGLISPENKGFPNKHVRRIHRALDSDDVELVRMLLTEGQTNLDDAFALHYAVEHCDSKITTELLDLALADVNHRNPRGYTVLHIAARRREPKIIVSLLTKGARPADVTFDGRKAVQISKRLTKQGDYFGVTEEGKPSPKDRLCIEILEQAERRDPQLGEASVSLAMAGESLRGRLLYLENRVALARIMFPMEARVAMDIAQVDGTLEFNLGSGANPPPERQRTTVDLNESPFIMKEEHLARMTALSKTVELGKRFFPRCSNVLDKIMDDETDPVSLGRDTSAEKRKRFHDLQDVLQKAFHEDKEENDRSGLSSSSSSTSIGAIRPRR

OsNPR1-GFP (rice) [2] = molecular target: T1, OsNPR1-GFP (rice); test: co-IP; protein competition Co-IP: two tagged proteins co-expressed in N. benthamiana leaves with or without a third protein (OsCTD-FLAG, P2-FLAG with 100 µM MG132, or OsNPR1)
nYFP-OsNPR1 (rice) [3] = molecular target: T2, nYFP-OsNPR1 (rice) (UniProt Q9FDY4); test: split reporter; BiFC in N. benthamiana leaves with or without a third protein (P2-FLAG, with or without MG132; OsNPR1-MYC)
T2 sequence: T1 sequence

nYFP-OsNPR1 (rice) [4] = molecular target: T2, nYFP-OsNPR1 (rice); test: split reporter; BiFC: nYFP and cYFP fusions co-expressed in N. benthamiana leaves (WT or NahG transgenic), confocal microscopy at 48 h

Row | Substance | binding (OsNPR1-GFP (rice) [1]) | binding (OsNPR1-GFP (rice) [2]) | binding (nYFP-OsNPR1 (rice) [3]) | binding (nYFP-OsNPR1 (rice) [4])
1 | OsMYC2-MYC (from UniProt Q336P5 1-699) | binds | binds |  | 
2 | OsMYC2-cYFP (from UniProt Q336P5 1-699) |  |  | binds | binds
